Results are given in words; binding and its absence hold for the method and conditions named. In cells and extracts the contact can be indirect. Some results given as binding are weak or reduced against the parent protein; the word gives no strength.
Target: Flag-HA-tagged AGO1 (human) (UniProt Q9UL18)
Assay: co-IP

Ran-binding protein 2 (RanBP2) (from UniProt P49792 1-3224)
binding: binds

From paper doi:10.1101/555896
